Tested on: selectively-bred alcohol preferring rats
Assay: Alcohol Preferring Rats In Vivo Model (two-bottle choice)
Set-up: species or system rat
Conditions: mean ± SEM; for 6 hr Water (water intake): 6 h after administration; for 24 hr Food (food intake) / 24 hr Water (water intake): 24 h after administration
Method: Adult male selectively-bred alcohol preferring rats (which are known in the art to be useful for the study of the effect of test compounds on vountary alcohol intake) were grouped into three groups: vehicle and Compound #8 (50 and 100 mg/kg, po). Rats were housed individually in wire mesh cages under a constant room temperature of 22±1° C. and 12:12 light-dark cycle (8:00-20:00, dark). The animals were fed Agway Prolab Rat/Mouse/ Hamster 3000 formula and water ad libitum.
Alcohol intake was determined using the standard two-bottle choice method. Animals were first given free access to water in a graduated Richter tube for 2 days. Then they were given access to only a solution of 10% (v/v) ethanol for 3 consecutive days. During this period animals became accustomed to drinking from Richter tubes and to the taste and pharmacological effects of alcohol. Thereafter, they were given free access to both water and a solution of 10% alcohol for at least 4 consecutive weeks and throughout the study period. Rats had free access to food. Water and alcohol intake were recorded at 4, 6 and 24 hours after the treatment, whereas food intake was measured at 24 hour. Animals' body weight was measured every day.
After establishment of a stable baseline for alcohol, food, and water intake, rats were administered either vehicle or Compound #8 via oral gavage using a cross-over design with random assignment. To be able to compare the efficacy of these compounds on alcohol intake with an established FDA-approved drug, naltrexone, was included as a positive control. Same rats were given an oral dose of naltrexone (20mg/kg). The interval between treatments was at least 3 days. Alcohol and water intake were recorded 4, 6 and 24 h after the drug administration and food intake was recorded at 24 hr. A total of 8-10 animals per group were used.
The results below are presented as means ±SEM. Alcohol intake (g/kg) was calculated by multiplying the volume of alcohol consumed in ml by 10% and 0.7893 (ethanol density)/body weight in kg. Alcohol preference, expressed as percentage, was calculated as follows: (volume of alcohol consumed in ml/total fluid intake in ml)×100 (Rezvani and Grady, 1994; Rezvani et al., 1997). Statistical differences between drug-treated and control groups were determined by using ANOVA and Turkey Student's t test for multiple comparison.

Row | Structure (SMILES) | 6 hr Water (water intake) (50 mg/kg po) | 24 hr Food (food intake) (50 mg/kg po) | 24 hr Water (water intake) (50 mg/kg po) | 6 hr Water (water intake) (100 mg/kg po) | 24 hr Food (food intake) (100 mg/kg po) | 24 hr Water (water intake) (100 mg/kg po) | 6 hr Water (water intake) (20 mg/kg oral) | 24 hr Food (food intake) (20 mg/kg oral) | 24 hr Water (water intake) (20 mg/kg oral)
1 | NS(=O)(=O)NC[C@H]1COc2cc(Cl)ccc2O1 [Compound #8, (2S)-(−)-N-(6-Chloro-2,3-dihydro-benzo[1,4]dioxin-2-ylmethyl)-sulfamide] | 2.2 ± 0.7 | 20.9 ± 0.9 | 5.3 ± 2 | 3.7 ± 1.1 | 18.9 ± 1.2 | 8.6 ± 2.3 | – | – | –
2 | O=C1CC[C@@]2(O)[C@H]3Cc4ccc(O)c5c4[C@@]2(CCN3CC2CC2)[C@H]1O5 [Naltrexone, naltrexone, reference compound] | – | – | – | – | – | – | 1.3 ± 0.6 | 18.9 ± 1.2 | 5.1 ± 1.9

Reference: patent US8691867B2, “Use of benzo-fused heterocycle sulfamide derivatives for the treatment of substance abuse and addiction” (Janssen Pharmaceutica NV, priority 2005, dated 2014)
